# The supplement of paper PMC8728848
# The list shows a part of the results.
# Assays:
# Assay in all cases: glycan array binding signal (z-score within array); higher = stronger binding
# Conditions in all cases: glycan notation: IUPAC condensed, linker removed
# [1] = molecular target: Gal(b1-4)GlcNAc(b1-3)Gal(b1-4)GlcNAc(b1-3)Gal(b1-4)GlcNAc(b1-3)Gal(b1-4)GlcNAc(b1-2)Man(a1-3)[Gal(b1-4)GlcNAc(b1-3)Gal(b1-4)GlcNAc(b1-3)Gal(b1-4)GlcNAc(b1-3)Gal(b1-4)GlcNAc(b1-2)Man(a1-6)]Man(b1-4)GlcNAc(b1-4)GlcNAc
# Method in brief: (§1)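 The Consortium for Functional Glycomics database supplied 3228 glycan arrays, of which those lacking an available protein sequence were dropped. The binding signal, a within-array Z-score, was averaged across arrays of the same protein sequence and across linkers. Negative scores can be read as non-binding.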
# [2] = molecular target: Gal(b1-4)GlcNAc(b1-3)Gal(b1-4)GlcNAc(b1-3)Gal(b1-4)GlcNAc(b1-3)Gal(b1-4)GlcNAc(b1-2)Man(a1-3)[Gal(b1-4)GlcNAc(b1-3)Gal(b1-4)GlcNAc(b1-3)Gal(b1-4)GlcNAc(b1-3)Gal(b1-4)GlcNAc(b1-2)Man(a1-6)]Man(b1-4)GlcNAc(b1-4)[Fuc(a1-6)]GlcNAc
# Method in brief: as §1
# [3] = molecular target: Gal(b1-4)GlcNAc(b1-3)Gal(b1-4)GlcNAc(b1-3)Gal(b1-4)GlcNAc(b1-3)Gal(b1-4)GlcNAc(b1-2)[Gal(b1-4)GlcNAc(b1-3)Gal(b1-4)GlcNAc(b1-3)Gal(b1-4)GlcNAc(b1-3)Gal(b1-4)GlcNAc(b1-6)]Man(a1-6)[Gal(b1-4)GlcNAc(b1-3)Gal(b1-4)GlcNAc(b1-3)Gal(b1-4)GlcNAc(b1-3)Gal(b1-4)GlcNAc(b1-2)Man(a1-3)]Man(b1-4)GlcNAc(b1-4)[Fuc(a1-6)]GlcNAc
# Method in brief: as §1
# [4] = molecular target: Gal(b1-4)GlcNAc(b1-3)Gal(b1-4)GlcNAc(b1-3)Gal(b1-4)GlcNAc(b1-3)Gal(b1-4)GlcNAc(b1-3)Gal(b1-4)GlcNAc(b1-2)Man(a1-3)[Gal(b1-4)GlcNAc(b1-3)Gal(b1-4)GlcNAc(b1-3)Gal(b1-4)GlcNAc(b1-3)Gal(b1-4)GlcNAc(b1-3)Gal(b1-4)GlcNAc(b1-2)Man(a1-6)]Man(b1-4)GlcNAc(b1-4)GlcNAc
# Method in brief: as §1
# [5] = molecular target: Gal(b1-4)GlcNAc(b1-3)Gal(b1-4)GlcNAc(b1-3)Gal(b1-4)GlcNAc(b1-3)Gal(b1-4)GlcNAc(b1-3)Gal(b1-4)GlcNAc(b1-2)Man(a1-3)[Gal(b1-4)GlcNAc(b1-3)Gal(b1-4)GlcNAc(b1-3)Gal(b1-4)GlcNAc(b1-3)Gal(b1-4)GlcNAc(b1-3)Gal(b1-4)GlcNAc(b1-2)Man(a1-6)]Man(b1-4)GlcNAc(b1-4)[Fuc(a1-6)]GlcNAc
# Method in brief: as §1
# [6] = molecular target: Gal(b1-4)GlcNAc(b1-3)Gal(b1-4)GlcNAc(b1-3)Gal(b1-4)GlcNAc(b1-3)Gal(b1-4)GlcNAc(b1-3)Gal(b1-4)GlcNAc(b1-2)[Gal(b1-4)GlcNAc(b1-3)Gal(b1-4)GlcNAc(b1-3)Gal(b1-4)GlcNAc(b1-3)Gal(b1-4)GlcNAc(b1-3)Gal(b1-4)GlcNAc(b1-6)]Man(a1-6)[Gal(b1-4)GlcNAc(b1-3)Gal(b1-4)GlcNAc(b1-3)Gal(b1-4)GlcNAc(b1-3)Gal(b1-4)GlcNAc(b1-3)Gal(b1-4)GlcNAc(b1-2)Man(a1-3)]Man(b1-4)GlcNAc(b1-4)[Fuc(a1-6)]GlcNAc
# Method in brief: as §1
# [7] = molecular target: Gal(b1-4)GlcNAc(b1-3)Gal(b1-4)GlcNAc(b1-3)Gal(b1-4)GlcNAc(b1-3)Gal(b1-4)GlcNAc(b1-3)Gal(b1-4)GlcNAc(b1-3)Gal(b1-4)GlcNAc(b1-2)Man(a1-3)[Gal(b1-4)GlcNAc(b1-3)Gal(b1-4)GlcNAc(b1-3)Gal(b1-4)GlcNAc(b1-3)Gal(b1-4)GlcNAc(b1-3)Gal(b1-4)GlcNAc(b1-3)Gal(b1-4)GlcNAc(b1-2)Man(a1-6)]Man(b1-4)GlcNAc(b1-4)GlcNAc
# Method in brief: as §1
# [8] = molecular target: Gal(b1-4)GlcNAc(b1-3)Gal(b1-4)GlcNAc(b1-3)GalNAc
# Method in brief: as §1
# [9] = molecular target: Gal(b1-4)GlcNAc(b1-3)Gal(b1-4)GlcNAc(b1-3)[Gal(b1-4)GlcNAc(b1-3)Gal(b1-4)GlcNAc(b1-6)]GalNAc
# Method in brief: as §1
# [10] = molecular target: Gal(b1-4)GlcNAc(b1-3)Gal(b1-4)GlcNAc(b1-6)[Gal(b1-3)]GalNAc
# Method in brief: as §1
# [11] = molecular target: Gal(b1-4)GlcNAc(b1-3)Gal(b1-4)[Fuc(a1-3)]GlcNAc(b1-3)Gal(b1-4)[Fuc(a1-3)]GlcNAc
# Method in brief: as §1
# [12] = molecular target: Gal(b1-4)GlcNAc(b1-3)GalNAc
# Method in brief: as §1
# [13] = molecular target: Gal(b1-4)GlcNAc(b1-3)[Fuc(a1-3)GlcNAc(b1-6)]Gal(b1-4)Glc
# Method in brief: as §1
# [14] = molecular target: Gal(b1-4)GlcNAc(b1-3)[Gal(b1-4)GlcNAc(b1-6)]Gal(b1-4)GlcNAc
# Method in brief: as §1
# [15] = molecular target: Gal(b1-4)GlcNAc(b1-3)[GlcNAc(b1-6)]Gal(b1-4)GlcNAc
# Method in brief: as §1
# [16] = molecular target: Gal(b1-4)GlcNAc(b1-6)Gal(b1-4)GlcNAc
# Method in brief: as §1
# [17] = molecular target: Gal(b1-4)GlcNAc(b1-6)GalNAc
# Method in brief: as §1
# [18] = molecular target: Gal(b1-4)GlcNAc(b1-6)[Gal(b1-3)]GalNAc
# Method in brief: as §1
# [19] = molecular target: Gal(b1-4)GlcNAc(b1-6)[Gal(b1-4)GlcNAc(b1-3)]GalNAc
# Method in brief: as §1
# Gal(b1-4)GlcNAc6P = molecular target: Gal(b1-4)GlcNAc6P
# Method in brief: as §1
# Gal(b1-6)Gal = molecular target: Gal(b1-6)Gal
# Method in brief: as §1
# Gal3S(b1-3)GalNAc = molecular target: Gal3S(b1-3)GalNAc
# Method in brief: as §1
# Gal3S(b1-3)GlcNAc = molecular target: Gal3S(b1-3)GlcNAc
# Method in brief: as §1
binder,measurement,setting,value
"DCIR1 (Mus musculus), Q9QZ15 (protein) MASEITYAEVKFKNESNSLHTYSESPAAPREKPIRDLRKPGSPSLLLTSLMLLLLLLAITFLVAFIIYFQKYSQLLEEKKAAKNIMHNELNCTKSVSPMEDKVWSCCPKDWRLFGSHCYLVPTVSSSASWNKSEENCSRMGAHLVVIQSQEEQDFITGILDTHAAYFIGLWDTGHRQWQWVDQTPYEESITFWHNGEPSSGNEKCATIIYRWKTGWGWNDISCSLKQKSVCQMKKINL",glycan array binding signal (z-score),[1],-0.452
same,glycan array binding signal (z-score),[2],-0.537
same,glycan array binding signal (z-score),[3],2.04
same,glycan array binding signal (z-score),[4],-0.475
same,glycan array binding signal (z-score),[5],2.35
same,glycan array binding signal (z-score),[6],0.085
same,glycan array binding signal (z-score),[7],-0.907
same,glycan array binding signal (z-score),[8],-0.721
same,glycan array binding signal (z-score),[9],0.557
same,glycan array binding signal (z-score),[10],0.91
same,glycan array binding signal (z-score),[11],1.05
same,glycan array binding signal (z-score),[12],-0.444
same,glycan array binding signal (z-score),[13],-0.78
same,glycan array binding signal (z-score),[14],-0.693
same,glycan array binding signal (z-score),[15],-0.372
same,glycan array binding signal (z-score),[16],-0.872
same,glycan array binding signal (z-score),[17],1.01
same,glycan array binding signal (z-score),[18],-0.07
same,glycan array binding signal (z-score),[19],0.977
same,glycan array binding signal (z-score),Gal(b1-4)GlcNAc6P,0.565
same,glycan array binding signal (z-score),Gal(b1-6)Gal,-0.786
same,glycan array binding signal (z-score),Gal3S(b1-3)GalNAc,0.904
same,glycan array binding signal (z-score),Gal3S(b1-3)GlcNAc,0.864

# Shown with bars between the fields: entries from further up.
binder | measurement | setting | value
DCIR1 (Mus musculus), Q9QZ15 (protein) MASEITYAEVKFKNESNSLHTYSESPAAPREKPIRDLRKPGSPSLLLTSLMLLLLLLAITFLVAFIIYFQKYSQLLEEKKAAKNIMHNELNCTKSVSPMEDKVWSCCPKDWRLFGSHCYLVPTVSSSASWNKSEENCSRMGAHLVVIQSQEEQDFITGILDTHAAYFIGLWDTGHRQWQWVDQTPYEESITFWHNGEPSSGNEKCATIIYRWKTGWGWNDISCSLKQKSVCQMKKINL | glycan array binding signal (z-score) | [2] | -0.537
same | glycan array binding signal (z-score) | [4] | -0.475
